Measured values reported in publication doi:10.1101/2021.09.16.460653.
Results are given in words; binding and its absence hold for the method and conditions named. Binding seen in cells or lysates may run through a third protein. Some results given as binding are weak or reduced against the parent protein; the word gives no strength. Where a sequence is shown, tags or fusion partners need not be part of it.

Target: T1, CLN6-myc (UniProt Q9NWW5)
T1 sequence: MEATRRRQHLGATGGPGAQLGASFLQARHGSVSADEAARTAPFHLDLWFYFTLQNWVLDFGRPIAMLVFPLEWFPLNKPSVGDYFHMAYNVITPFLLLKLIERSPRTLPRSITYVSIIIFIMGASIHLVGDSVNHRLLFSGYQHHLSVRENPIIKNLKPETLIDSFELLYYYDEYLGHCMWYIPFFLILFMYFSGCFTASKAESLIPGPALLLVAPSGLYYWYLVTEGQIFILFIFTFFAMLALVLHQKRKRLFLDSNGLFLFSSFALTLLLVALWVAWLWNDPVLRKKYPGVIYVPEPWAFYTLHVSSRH
Test: co-IP

B1: KLC4 in PC12 cells (protein, UniProt Q5PQM2 1-619)
chain: MSGLVLGQRDEPAGHRLSQEEILGSTRLVSQGLESLHSEHQAVLQSLSHTIECLQQGGHEEGLVHEKARQLRRSMENIELGLSEAQVMLALASHLSTVESEKQKLRAQVRRLCQENQWLRDELAGTQQRLQRSEQAVAQLEEEKKHLEFLRQLRQYDEDGHSMEEKEGDASKDSLDDLFPNEEEEDSSNDLSRGQGAAAAQQGGYEIPARLRTLHNLVIQYAAQGRYEVAVPLCKQALEDLERTSGRGHPDVATMLNILALVYRDQNKYKEAAHLLNDALSIRESTLGRDHPAVAATLNNLAVLYGKRGKYKEAEPLCQRALEIREKVLGTDHPDVAKQLNNLALLCQNQGKYEAVERYYQRALAIYERQLGPDNPNVARTKNNLASCYLKQGKYSEAETLYKEILTRAHVQEFGSVDDDHKPIWMHAEEREEMSRSRSRESGTPYAEYGGWYKACRVSSPTVNTTLRNLGALYRRQGKLEAAETLEECALRSRKQGTDPISQTKVAELLGEGDGRKTMQEGPGDSVKFEGGEDASVAVEWSGDGSGTLQRSGSLGKIRDVLRRSSELLVRKLQGTEPRPSSSNMKRAASLNYLNQPNAAPLQTSRGLSASTVDLSSSS
For B1, the binding was “binds”.
